PMC7862700
The entries are a selection whose mix differs from that of the whole data set. For part of these data: At the low end of the ranking, values are background and their order means little. This is one part of the list. For part of these data: The exact form of the protein is not confirmed.

Protein sequences, listed by entry. Tags and fused reporters are not part of them. Lines headed by an entry give the natural chain unless they say otherwise; changes in a name come on top.
UniProt P32519: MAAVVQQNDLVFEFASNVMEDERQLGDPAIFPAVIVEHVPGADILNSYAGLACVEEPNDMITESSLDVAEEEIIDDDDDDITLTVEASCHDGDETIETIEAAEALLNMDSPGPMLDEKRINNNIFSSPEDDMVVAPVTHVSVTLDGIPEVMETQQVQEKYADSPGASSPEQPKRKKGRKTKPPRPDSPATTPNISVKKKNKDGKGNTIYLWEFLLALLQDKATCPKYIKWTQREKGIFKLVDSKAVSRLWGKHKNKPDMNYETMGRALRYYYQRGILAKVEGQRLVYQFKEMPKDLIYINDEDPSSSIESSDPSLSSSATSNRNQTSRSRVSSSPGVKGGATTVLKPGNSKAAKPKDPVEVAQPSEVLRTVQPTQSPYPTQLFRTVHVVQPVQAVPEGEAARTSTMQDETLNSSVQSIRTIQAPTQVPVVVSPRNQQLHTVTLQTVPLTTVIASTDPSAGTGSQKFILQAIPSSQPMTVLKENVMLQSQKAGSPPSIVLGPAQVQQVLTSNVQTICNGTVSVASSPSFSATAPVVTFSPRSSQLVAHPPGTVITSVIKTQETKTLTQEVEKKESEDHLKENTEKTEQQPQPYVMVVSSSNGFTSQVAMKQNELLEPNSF

Experiments:
Test in all cases: DAPPL (digital affinity profiling via proximity ligation, sequencing)
Conditions in all cases: 10 mM Tris-HCl pH 7.5, 50 mM NaCl, 1 mM DTT, 4% glycerol, room temperature, 30 min; GST-TFs on glutathione beads, 16-mer random dsDNA library, 0.1% …; high values mean tight binding; double strand, one strand shown; scale: fold enrichment (6-mer frequency, TF over GST control)
ETV4 = target: T1, ETV4 (UniProt P43268)
T1 sequence: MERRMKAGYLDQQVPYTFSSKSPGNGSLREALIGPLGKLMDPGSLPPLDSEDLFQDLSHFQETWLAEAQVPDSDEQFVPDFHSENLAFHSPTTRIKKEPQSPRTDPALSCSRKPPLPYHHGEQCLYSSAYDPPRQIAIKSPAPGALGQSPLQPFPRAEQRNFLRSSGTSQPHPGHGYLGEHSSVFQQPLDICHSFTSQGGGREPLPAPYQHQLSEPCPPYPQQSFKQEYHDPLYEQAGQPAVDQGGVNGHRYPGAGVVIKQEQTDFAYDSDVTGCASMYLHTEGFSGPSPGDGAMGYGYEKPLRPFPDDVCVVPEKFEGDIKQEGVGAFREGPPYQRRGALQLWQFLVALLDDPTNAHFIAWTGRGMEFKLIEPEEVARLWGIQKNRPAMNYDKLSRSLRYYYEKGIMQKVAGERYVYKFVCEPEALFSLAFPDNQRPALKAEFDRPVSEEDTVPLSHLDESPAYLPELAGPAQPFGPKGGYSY

ERF = target: T2, ERF (UniProt P50548)
T2 sequence: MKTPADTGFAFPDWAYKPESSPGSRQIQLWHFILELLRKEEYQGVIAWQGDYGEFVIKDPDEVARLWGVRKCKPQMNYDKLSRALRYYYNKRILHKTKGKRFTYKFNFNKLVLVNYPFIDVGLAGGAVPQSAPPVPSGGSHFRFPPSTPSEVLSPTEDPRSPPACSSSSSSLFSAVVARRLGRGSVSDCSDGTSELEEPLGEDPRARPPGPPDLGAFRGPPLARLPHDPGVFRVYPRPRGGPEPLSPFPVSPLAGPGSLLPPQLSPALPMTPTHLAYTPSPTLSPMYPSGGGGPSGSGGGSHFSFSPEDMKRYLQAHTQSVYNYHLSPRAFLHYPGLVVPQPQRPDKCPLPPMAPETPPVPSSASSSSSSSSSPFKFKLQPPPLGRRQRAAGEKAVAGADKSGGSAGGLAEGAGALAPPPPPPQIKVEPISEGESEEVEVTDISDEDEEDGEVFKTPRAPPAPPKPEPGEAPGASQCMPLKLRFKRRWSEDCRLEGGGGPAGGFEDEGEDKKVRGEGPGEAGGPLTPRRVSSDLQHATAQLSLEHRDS

ELF1 = ELF1 (UniProt P32519)

Row | Sequence | binding signal (ETV4) | binding signal (ERF) | binding signal (ELF1)
1 | ATATAA | 1.13 | 1.16 | –
2 | CGCGAT | 1.22 | 0.895 | –
3 | TATAGG | 1.13 | 1.18 | –
4 | GTCCCG | 1.22 | 1.22 | –
5 | CTCAAG | 1.12 | 1.27 | –
6 | TTATTC | 1.38 | 1.45 | –
7 | ATGCTC | 1.5 | 1.33 | –
8 | ACAAAT | 1.09 | 1.3 | –
9 | TCATTA | 1.16 | 1.19 | –
10 | GCCCCA | 1.02 | 0.934 | –
11 | AAGGGT | 0.991 | 0.998 | –
12 | CGCGCC | 1.1 | 1.1 | –
13 | CTATGG | 1.33 | 1.11 | –
14 | CTTTGT | 1.29 | 1.3 | –
15 | CACTTT | 1.24 | 1.3 | –
16 | TTAGCT | 1.28 | 1.2 | –
17 | AATGAC | 1.41 | 1.35 | –
18 | TAAAGG | 0.978 | 0.971 | –
19 | GAACTA | 1.3 | 1.25 | –
20 | TATCAC | 1.28 | 1.19 | –
21 | TCCTGG | 1.74 | 1.43 | –
22 | GCCTAA | 1.24 | 1.22 | –

Row | Sequence | binding signal (ETV4) | binding signal (ERF) | binding signal (ELF1)
23 | TTTTTG | 1.33 | 1.35 | –
24 | GCTACA | 1.2 | 1.2 | –
25 | CACTAT | 1.23 | 1.2 | –
26 | GCAATC | 0.98 | 1.03 | –
27 | TGACAT | 1.21 | 1.21 | –
28 | GTTGTT | 1.11 | 1.06 | –
29 | CCCCAG | 1.07 | 0.993 | –
30 | GGGCTC | 1.21 | 1.28 | –
31 | ATCTCA | 1.21 | 1.07 | –
32 | ATTGGG | 1.17 | 1.31 | –
33 | ACGAAT | 1.23 | 1.17 | –
34 | TGGTTG | 1.02 | 1.1 | –
35 | GAATAT | 1.08 | 0.995 | –
36 | CTTCGA | 1.38 | 1.41 | –
37 | GCACTG | 1.1 | 1.04 | –
38 | TTAAAT | 1.12 | 1.1 | –
39 | GCATTT | 1.36 | 1.31 | –
40 | TAGCTT | 1.16 | 1.29 | –
41 | TTGTAG | 1.14 | 1.14 | –
42 | ACCCTC | 1.12 | 1.19 | –
43 | CTGATG | 1.55 | 1.48 | –
44 | CTCTAC | 1.66 | 1.45 | –

Whole records as entered above. Values in the order: binding signal (ETV4)	binding signal (ERF)	binding signal (ELF1)
TTGTAG in the list: 1.14	1.14	–
GGGCTC in the list: 1.21	1.28	–

(listing goes on)

Row | Sequence | binding signal (ETV4) | binding signal (ERF) | binding signal (ELF1)
45 | TATAAT | 1.15 | 1.25 | –
46 | TAATTA | 1.25 | 1.24 | –
47 | TAGATT | 1.2 | 1.37 | –
48 | ATACGC | 1.16 | 1.18 | –
49 | CGAACA | 1.06 | 1.17 | –
50 | TGACAA | 1.25 | 1.23 | –
51 | CGCCTG | 1.18 | 0.945 | –
52 | TCCACC | 1.24 | 1.25 | –
53 | ATTATC | 1.34 | 1.36 | –
54 | TTGGTT | 1.35 | 1.43 | –
55 | TGGCCC | 1.11 | 0.956 | –
56 | TGACTG | 1.07 | 1.15 | –
57 | CCCGAT | 1.23 | 1.22 | –
58 | GGGTTC | 1.02 | 0.875 | –
59 | AATAGG | 1.11 | 1.21 | –
60 | ATTGTA | 1.27 | 1.27 | –
61 | GTCTCG | 1.17 | 1.29 | –
62 | CATGAC | 1.2 | 1.18 | –
63 | CCTGCT | 1.6 | 1.53 | –
64 | ATGGGC | 1.36 | 1.17 | –
65 | TCCTTC | 2.17 | 1.95 | –
66 | TCCAAG | 1.12 | 1.03 | –

Row | Sequence | binding signal (ETV4) | binding signal (ERF) | binding signal (ELF1)
67 | ACTATT | 1.19 | 1.22 | –
68 | CTAACT | 1.4 | 1.32 | –
69 | CTTAAG | 1.01 | 1.07 | –
70 | CAATTA | 1.11 | 1.13 | –
71 | TAACTG | 1.27 | 1.11 | –
72 | ACACCT | 1.15 | 1.14 | –
73 | ATGCTA | 1.26 | 1.26 | –
74 | TATCCA | 1.28 | 1.27 | –
75 | CCCTGA | 1 | 0.994 | –
76 | CGAACC | 1.17 | 1.12 | –
77 | TCGATA | 1.1 | 1.24 | 1.11
78 | CGAGCA | 1.15 | 1.17 | 1.14
79 | ATATTT | 1.49 | 1.55 | –
80 | AAGGGC | 1.07 | 1.06 | –
81 | TGAACA | 1.25 | 1.27 | –
82 | TCTCTC | 1.36 | 1.31 | 1.35
83 | AAGCCT | 1.16 | 1.17 | –
84 | GCTAAG | 0.977 | 0.874 | 0.988
85 | CAGATT | 1.03 | 0.96 | 1
86 | CGTCAT | 0.911 | 0.97 | 0.967
87 | TGTATG | 1.17 | 1.31 | 1.23
88 | AATACG | 1.18 | 1.23 | –

Single entries from the entries so far:
Entry of TCCTGG under binding signal (ETV4): 1.74
Entry of CTAACT under binding signal (ERF): 1.32

Next part

Row | Sequence | binding signal (ETV4) | binding signal (ERF) | binding signal (ELF1)
89 | ATTCTT | 1.4 | 1.3 | 1.51
90 | AATCTC | 1.22 | 1.27 | –
91 | CTTCCG | 8.26 | 6.13 | 7.37
92 | TTTTGG | 1.34 | 1.47 | –
93 | CCGCAT | 1.45 | 1.46 | –
94 | ACCTCA | 1.23 | 1.23 | 1.23
95 | CACCGG | 1.27 | 1.08 | 1.09
96 | TAATAT | 1.27 | 1.35 | 1.27
97 | TCGAGC | 1.03 | 1.03 | 0.962
98 | CCTATA | 1.37 | 1.33 | –
99 | CGCAAC | 1.04 | 0.977 | –
100 | AGTAAT | 1.1 | 0.998 | –
101 | TTGTGT | 1.16 | 1.4 | 1.18
102 | TGCTTA | 1.11 | 1.1 | 1.13
103 | GCACAT | 1.19 | 1.2 | –
104 | CACTAC | 1.25 | 1.33 | –
105 | CCGAAT | 1.18 | 1.35 | –
106 | ACTGAA | 1.2 | 1.13 | –
107 | CGTCTG | 1.15 | 1.11 | –
108 | CAGATG | 1.01 | 1.11 | –
109 | AAAAAT | 1.23 | 1.35 | 1.31
